Results: publication PMC4965873
These are yes or no findings as the source states them, for the method shown. Binding seen in cells or lysates may run through a third protein. Some results given as binding are weak or reduced against the parent protein; the word gives no strength.

Chains of the proteins cited; added tags and fusions are not shown.
UniProt P41241: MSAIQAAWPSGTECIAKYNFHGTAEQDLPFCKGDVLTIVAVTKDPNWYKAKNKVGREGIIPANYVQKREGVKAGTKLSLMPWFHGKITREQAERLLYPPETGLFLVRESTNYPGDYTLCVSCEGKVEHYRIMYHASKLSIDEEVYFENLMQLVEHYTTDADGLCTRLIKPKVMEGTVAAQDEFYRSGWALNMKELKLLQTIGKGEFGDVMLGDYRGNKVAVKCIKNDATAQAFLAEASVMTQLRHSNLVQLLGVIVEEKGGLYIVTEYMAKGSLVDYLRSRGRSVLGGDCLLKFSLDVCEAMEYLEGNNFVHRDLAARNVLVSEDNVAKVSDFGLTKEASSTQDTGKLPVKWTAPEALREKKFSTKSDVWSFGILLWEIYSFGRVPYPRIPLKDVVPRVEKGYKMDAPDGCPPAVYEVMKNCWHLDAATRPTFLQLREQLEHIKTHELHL
UniProt O08908: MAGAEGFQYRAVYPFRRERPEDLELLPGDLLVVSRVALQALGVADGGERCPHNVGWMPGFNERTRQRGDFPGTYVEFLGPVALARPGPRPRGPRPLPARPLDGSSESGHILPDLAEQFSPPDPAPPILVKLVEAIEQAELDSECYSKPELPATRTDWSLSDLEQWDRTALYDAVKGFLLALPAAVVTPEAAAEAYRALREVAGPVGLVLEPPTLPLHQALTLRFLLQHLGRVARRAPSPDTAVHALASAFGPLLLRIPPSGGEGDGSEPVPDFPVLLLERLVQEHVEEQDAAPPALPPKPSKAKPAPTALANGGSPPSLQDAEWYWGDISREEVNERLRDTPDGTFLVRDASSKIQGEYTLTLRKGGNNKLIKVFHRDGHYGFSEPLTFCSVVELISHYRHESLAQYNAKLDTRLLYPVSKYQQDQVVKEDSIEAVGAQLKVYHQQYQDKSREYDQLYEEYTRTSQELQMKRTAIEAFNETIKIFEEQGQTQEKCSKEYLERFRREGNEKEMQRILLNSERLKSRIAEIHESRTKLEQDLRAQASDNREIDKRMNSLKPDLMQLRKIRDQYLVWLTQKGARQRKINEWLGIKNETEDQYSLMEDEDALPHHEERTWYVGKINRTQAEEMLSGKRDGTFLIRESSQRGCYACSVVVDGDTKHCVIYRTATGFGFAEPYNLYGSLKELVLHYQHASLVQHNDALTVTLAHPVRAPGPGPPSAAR
UniProt P47941: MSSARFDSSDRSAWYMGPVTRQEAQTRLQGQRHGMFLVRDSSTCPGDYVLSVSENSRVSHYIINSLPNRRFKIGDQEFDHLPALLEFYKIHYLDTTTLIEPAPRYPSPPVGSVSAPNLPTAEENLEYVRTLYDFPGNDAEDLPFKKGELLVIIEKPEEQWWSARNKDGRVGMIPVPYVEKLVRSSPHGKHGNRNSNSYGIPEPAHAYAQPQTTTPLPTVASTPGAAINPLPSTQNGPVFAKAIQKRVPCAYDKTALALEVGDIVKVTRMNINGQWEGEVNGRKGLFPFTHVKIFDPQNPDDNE
UniProt Q3TTA7: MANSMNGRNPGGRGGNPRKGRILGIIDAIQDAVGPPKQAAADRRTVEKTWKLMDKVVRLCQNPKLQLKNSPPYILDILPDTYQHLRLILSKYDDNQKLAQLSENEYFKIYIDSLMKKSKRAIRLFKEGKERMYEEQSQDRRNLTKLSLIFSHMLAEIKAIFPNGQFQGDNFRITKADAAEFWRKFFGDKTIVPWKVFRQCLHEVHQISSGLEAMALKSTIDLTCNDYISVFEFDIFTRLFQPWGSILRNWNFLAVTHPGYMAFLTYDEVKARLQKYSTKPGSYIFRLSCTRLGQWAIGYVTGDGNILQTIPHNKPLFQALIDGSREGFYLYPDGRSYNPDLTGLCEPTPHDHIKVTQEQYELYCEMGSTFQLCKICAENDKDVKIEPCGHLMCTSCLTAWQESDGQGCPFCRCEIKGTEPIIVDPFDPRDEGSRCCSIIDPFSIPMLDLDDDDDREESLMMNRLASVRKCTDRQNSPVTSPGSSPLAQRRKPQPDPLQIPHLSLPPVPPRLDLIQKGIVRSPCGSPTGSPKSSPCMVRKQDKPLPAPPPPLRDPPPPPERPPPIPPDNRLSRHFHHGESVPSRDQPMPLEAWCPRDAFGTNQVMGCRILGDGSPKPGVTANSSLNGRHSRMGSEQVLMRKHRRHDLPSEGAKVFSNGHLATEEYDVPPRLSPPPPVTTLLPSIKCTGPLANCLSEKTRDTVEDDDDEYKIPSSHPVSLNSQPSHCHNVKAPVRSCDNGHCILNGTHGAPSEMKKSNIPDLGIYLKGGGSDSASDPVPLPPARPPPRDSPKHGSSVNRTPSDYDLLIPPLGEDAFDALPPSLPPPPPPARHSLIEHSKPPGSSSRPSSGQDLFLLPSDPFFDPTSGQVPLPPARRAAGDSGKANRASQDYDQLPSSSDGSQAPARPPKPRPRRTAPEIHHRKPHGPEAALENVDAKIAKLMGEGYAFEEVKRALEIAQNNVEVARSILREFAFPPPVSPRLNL
UniProt P42337: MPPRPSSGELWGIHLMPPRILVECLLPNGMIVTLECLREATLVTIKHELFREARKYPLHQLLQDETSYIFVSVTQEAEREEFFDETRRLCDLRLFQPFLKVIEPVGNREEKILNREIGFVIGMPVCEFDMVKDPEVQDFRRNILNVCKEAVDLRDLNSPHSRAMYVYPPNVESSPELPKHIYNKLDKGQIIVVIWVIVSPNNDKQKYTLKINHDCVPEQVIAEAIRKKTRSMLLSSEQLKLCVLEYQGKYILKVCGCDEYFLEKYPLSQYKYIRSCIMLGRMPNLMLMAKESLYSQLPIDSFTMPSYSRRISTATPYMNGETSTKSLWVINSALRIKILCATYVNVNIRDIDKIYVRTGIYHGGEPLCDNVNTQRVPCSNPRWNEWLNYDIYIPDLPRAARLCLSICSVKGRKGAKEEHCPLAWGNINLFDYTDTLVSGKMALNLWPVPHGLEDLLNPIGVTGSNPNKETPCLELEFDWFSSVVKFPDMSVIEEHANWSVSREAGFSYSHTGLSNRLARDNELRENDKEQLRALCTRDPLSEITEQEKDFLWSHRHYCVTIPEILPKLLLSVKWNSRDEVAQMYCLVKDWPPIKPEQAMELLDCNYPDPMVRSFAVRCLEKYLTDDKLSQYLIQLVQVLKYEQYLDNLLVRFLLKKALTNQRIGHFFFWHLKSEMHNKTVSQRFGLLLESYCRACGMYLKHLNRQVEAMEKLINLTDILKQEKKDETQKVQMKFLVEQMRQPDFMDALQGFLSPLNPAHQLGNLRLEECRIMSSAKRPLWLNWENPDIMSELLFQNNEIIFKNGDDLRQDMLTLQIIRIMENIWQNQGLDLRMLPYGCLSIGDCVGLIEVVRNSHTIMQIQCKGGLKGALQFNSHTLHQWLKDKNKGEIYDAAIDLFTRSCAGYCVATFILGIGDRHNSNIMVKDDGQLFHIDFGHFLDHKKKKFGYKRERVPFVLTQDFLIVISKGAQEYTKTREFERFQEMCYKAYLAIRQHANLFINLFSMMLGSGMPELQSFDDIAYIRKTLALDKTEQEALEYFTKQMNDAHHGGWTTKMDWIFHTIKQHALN

Legend:
Experiment in all cases: co-IP; immunoprecipitation (1.5 h, Pansorbin) with anti-CBL, anti-CBLB, anti-CSK, anti-CRKL or anti-p85-PI3K from lysates (n-dodecyl-β-maltoside) of expanded mouse CD4+ T cells, unstimulated or stimulated 1 min with anti-CD3 + anti-CD4; immunoblot; isotype control; cells of wild-type, Cblb-/-, Cbl-/- and Cd5-/- mice
[1] = target: CSK (mouse (endogenous in CD4+ T cells)) (UniProt P41241)
[2] = target: PIK3R2 (mouse (endogenous in CD4+ T cells)) (UniProt O08908)
[3] = target: CRKL (mouse (endogenous in CD4+ T cells)) (UniProt P47941)

| binding [1] | binding [2] | binding [3] | Substance |
| --- | --- | --- | --- |
| binds | – | – | CBLB (from UniProt Q3TTA7 1-982) |
| no binding | – | – | CRKL (from UniProt P47941 1-303) |
| binds | binds | binds | PIK3CA (from UniProt P42337 1-1068) (enzyme) |
| binds | – | binds | PIK3R2 (from UniProt O08908 1-722) |
